For four molecules, binding results are on record in paper PMC9303297, “Characterization of an autonomous pathway complex that promotes flowering in Arabidopsis” (Nucleic Acids Research, 2022).

The chains behind the UniProt entries cited, without tags or fusion partners. Where a name states a change or a piece, a line headed by the entry shows the natural chain unless it says otherwise.
UniProt F4KB26: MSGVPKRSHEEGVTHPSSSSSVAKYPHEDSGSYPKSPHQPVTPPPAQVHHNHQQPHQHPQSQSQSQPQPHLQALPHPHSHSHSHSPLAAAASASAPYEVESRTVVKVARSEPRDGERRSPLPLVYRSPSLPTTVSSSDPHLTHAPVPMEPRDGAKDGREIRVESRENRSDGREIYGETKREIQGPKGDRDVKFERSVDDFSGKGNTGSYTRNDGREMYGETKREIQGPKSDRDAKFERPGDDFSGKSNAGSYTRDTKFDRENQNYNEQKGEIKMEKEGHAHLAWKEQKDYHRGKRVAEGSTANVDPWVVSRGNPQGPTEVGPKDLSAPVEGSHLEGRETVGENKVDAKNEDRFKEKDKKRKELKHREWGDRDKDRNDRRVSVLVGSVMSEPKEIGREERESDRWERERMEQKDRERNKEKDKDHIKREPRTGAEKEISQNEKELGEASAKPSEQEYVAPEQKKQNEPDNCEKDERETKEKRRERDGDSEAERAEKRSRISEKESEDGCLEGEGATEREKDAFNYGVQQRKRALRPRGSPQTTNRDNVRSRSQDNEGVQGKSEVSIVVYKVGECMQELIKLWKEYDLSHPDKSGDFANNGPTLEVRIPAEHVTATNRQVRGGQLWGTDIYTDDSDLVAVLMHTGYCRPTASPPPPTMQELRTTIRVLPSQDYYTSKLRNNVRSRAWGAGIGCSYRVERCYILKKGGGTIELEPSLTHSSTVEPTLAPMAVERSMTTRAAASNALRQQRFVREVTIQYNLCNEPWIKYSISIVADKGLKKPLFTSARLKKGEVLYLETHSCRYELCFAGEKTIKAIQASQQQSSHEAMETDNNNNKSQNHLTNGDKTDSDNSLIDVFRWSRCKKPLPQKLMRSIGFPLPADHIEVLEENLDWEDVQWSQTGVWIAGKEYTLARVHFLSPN
UniProt Q9XIE1: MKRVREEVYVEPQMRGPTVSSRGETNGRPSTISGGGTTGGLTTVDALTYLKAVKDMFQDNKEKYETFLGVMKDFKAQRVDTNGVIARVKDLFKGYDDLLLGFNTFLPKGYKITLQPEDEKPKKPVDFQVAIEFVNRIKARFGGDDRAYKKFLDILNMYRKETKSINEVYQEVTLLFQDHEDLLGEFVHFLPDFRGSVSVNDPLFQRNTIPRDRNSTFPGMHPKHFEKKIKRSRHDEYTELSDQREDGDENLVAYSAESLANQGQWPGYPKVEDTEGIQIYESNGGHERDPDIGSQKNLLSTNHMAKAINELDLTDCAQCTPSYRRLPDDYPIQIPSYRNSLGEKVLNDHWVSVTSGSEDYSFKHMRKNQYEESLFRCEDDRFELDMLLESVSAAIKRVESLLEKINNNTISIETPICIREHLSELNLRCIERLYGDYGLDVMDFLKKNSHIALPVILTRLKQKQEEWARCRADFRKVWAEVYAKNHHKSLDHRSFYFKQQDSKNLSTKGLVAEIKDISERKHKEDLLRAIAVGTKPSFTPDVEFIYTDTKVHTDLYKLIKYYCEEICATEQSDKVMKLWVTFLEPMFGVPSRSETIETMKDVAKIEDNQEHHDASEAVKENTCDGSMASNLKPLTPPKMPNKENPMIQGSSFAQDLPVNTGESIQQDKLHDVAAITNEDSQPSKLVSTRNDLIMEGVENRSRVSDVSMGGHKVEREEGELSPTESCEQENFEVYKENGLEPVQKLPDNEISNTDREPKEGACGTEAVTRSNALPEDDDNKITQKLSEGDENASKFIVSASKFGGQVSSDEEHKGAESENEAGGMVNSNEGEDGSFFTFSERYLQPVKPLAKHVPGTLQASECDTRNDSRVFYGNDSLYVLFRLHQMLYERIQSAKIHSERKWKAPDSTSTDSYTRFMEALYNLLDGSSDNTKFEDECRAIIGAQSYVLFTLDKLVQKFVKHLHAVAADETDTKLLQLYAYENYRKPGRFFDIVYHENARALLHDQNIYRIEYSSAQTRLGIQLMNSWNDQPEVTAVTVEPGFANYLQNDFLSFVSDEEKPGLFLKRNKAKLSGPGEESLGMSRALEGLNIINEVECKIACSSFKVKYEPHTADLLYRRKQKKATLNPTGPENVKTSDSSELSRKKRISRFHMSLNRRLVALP
UniProt Q9XIK6: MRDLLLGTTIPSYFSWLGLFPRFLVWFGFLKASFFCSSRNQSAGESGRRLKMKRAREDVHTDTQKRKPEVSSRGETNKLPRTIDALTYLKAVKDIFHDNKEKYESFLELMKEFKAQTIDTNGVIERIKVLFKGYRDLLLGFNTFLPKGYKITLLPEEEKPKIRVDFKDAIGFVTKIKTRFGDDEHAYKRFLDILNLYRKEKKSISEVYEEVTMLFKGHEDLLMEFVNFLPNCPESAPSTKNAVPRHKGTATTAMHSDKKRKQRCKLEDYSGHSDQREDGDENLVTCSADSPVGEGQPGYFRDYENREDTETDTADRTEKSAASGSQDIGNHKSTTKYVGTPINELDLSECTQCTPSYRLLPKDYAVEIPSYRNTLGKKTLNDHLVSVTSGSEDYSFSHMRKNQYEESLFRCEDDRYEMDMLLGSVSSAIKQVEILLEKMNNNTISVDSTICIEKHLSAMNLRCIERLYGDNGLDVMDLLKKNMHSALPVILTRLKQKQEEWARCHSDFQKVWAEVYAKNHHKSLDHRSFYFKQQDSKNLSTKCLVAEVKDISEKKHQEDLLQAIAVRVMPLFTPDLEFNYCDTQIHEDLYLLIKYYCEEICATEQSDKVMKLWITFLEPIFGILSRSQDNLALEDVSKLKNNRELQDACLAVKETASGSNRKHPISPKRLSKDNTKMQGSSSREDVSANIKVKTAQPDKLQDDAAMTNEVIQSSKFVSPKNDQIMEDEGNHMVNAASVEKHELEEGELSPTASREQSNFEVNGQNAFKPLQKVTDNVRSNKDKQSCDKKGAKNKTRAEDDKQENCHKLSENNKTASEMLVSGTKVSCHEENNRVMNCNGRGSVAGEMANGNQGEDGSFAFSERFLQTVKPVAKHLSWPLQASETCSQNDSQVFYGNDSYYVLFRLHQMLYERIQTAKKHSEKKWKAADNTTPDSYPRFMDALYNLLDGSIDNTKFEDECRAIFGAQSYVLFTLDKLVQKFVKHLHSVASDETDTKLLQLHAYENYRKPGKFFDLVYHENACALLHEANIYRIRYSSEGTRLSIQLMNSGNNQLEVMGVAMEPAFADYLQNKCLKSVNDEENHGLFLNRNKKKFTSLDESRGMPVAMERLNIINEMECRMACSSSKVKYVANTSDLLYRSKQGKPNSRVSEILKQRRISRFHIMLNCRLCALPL

Like-named read-outs stand apart in the source and are kept apart here. Results are given in words; binding and its absence hold for the method and conditions named. Binding seen in cells or lysates may run through a third protein. These calls come from enrichment with a bait or labelling near it, and not all partners need be listed. Tags and fused reporters may be left off the sequences shown.

Common to all, as to experiment: affinity purification with mass spectrometry; 3×Flag-tagged bait from inflorescence of transgenic Arabidopsis (WT, sdg26 and fld backgrounds) bound to ANTI-FLAG M2 agarose at 4°C, lysis buffer 50 mM Tris-HCl pH 7.6, 150 mM NaCl, 0.1% NP-40; eluted with 3×Flag peptides
Test [1] has as its target T1, EFL4 (ELF4-like protein), EFL4-3×Flag in transgenic Arabidopsis (Arabidopsis thaliana) (UniProt Q570U6).
T1 sequence: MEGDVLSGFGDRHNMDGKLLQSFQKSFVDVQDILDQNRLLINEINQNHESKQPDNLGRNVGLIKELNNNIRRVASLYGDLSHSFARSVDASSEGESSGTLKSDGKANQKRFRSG

Test [2] deals with T2, EFL2 (ELF4-like protein), EFL2-3×Flag in transgenic Arabidopsis (Arabidopsis thaliana) (UniProt Q94BS8).
T2 sequence: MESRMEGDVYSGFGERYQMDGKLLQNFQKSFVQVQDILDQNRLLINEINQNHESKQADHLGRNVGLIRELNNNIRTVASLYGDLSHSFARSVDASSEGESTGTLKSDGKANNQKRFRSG

In test [3] the target is T3, LD (LU…), LD-3×Flag in transgenic Arabidopsis (Arabidopsis thaliana) (UniProt Q38796).
T3 sequence: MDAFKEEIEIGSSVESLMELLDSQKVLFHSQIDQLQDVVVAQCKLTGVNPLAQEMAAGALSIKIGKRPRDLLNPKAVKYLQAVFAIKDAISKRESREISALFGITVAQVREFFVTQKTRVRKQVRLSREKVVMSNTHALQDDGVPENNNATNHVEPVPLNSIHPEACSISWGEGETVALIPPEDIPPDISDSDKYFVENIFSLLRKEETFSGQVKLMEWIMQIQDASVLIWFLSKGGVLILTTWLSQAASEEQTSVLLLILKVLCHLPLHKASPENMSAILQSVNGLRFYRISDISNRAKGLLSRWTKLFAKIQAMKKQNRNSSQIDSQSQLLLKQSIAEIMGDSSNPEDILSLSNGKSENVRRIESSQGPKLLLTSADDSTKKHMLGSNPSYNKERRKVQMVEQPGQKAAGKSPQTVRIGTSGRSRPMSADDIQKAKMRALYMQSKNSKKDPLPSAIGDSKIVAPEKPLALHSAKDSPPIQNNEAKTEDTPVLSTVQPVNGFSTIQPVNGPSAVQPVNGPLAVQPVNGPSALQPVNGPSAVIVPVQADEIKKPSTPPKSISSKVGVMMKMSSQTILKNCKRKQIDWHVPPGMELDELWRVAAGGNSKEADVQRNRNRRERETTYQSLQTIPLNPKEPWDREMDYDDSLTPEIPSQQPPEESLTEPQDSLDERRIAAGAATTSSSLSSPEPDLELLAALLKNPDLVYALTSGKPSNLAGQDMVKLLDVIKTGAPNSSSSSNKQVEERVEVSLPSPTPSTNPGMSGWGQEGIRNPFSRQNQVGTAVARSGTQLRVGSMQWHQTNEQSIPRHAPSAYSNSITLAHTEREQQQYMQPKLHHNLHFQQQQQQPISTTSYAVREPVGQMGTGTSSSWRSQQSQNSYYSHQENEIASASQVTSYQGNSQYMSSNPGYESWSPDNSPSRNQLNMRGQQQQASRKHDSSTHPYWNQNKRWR

Test [4] concerns the target T4, SDG26, SDG26-3×Flag in transgenic Arabidopsis (Arabidopsis thaliana) (UniProt Q84WW6).
T4 sequence: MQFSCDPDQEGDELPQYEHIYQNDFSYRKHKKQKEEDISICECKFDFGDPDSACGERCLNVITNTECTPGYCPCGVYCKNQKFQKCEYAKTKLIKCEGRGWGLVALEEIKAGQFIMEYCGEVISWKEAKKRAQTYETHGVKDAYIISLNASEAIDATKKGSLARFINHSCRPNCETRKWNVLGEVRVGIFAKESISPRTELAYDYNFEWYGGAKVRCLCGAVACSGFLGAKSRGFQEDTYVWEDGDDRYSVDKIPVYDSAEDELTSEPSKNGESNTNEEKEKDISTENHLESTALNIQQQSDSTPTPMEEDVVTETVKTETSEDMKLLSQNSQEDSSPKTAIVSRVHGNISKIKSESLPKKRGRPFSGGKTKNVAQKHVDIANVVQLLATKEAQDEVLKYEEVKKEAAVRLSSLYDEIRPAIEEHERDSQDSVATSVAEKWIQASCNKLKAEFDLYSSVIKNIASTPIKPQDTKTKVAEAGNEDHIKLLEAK

Test [5] concerns the target T1, EFL4 (ELF4-like protein), EFL4-3×Flag in transgenic Arabidopsis (Arabidopsis thaliana). This is another data set of the same source.
The target of test [6] is T2, EFL2 (ELF4-like protein), EFL2-3×Flag in transgenic Arabidopsis (Arabidopsis thaliana). This is another data set of the same source.

In the case of “HDC1 (histone deacetylase complex component) (from UniProt F4KB26)”, the binding entry in test [1] and in test [2] was “binds” each time.
As for “SNL5 (histone deacetylase complex component) (from UniProt Q9XIE1 1-1162)”, the binding result in test [1] and in test [2] was “binds” each time.
As to “SNL6 (histone deacetylase complex component) (from UniProt Q9XIK6 1-1173)”, the binding entry in test [1] and in test [2] was “binds” in each case.

B1: GST-FLD, full-length (natural protein, Arabidopsis thaliana, UniProt Q9CAE3 1-789, looked up)
chain: MVSFSAPKKRRRGRSQRSMSSLNSLPVPNVGLLPGNSNFVSSSASSSGRFNVEVVNGSNQTVKSYPGIGDEIITINKEATTEALLALTAGFPADSLTEEEIEFGVVPIVGGIEQVNYILIRNHIISKWRENISSWVTKEMFLNSIPKHCSSLLDSAYNYLVTHGYINFGIAQAIKDKFPAQSSKSSVIIVGAGLSGLAAARQLMRFGFKVTVLEGRKRPGGRVYTKKMEANRVGAAADLGGSVLTGTLGNPLGIIARQLGSSLYKVRDKCPLYRVDGKPVDPDVDIKVEVAFNQLLDKASKLRQLMGDVSMDVSLGAALETFRQVSGNDVATEEMGLFNWHLANLEYANAGLVSKLSLAFWDQDDPYDMGGDHCFLPGGNGRLVQALAENVPILYEKTVQTIRYGSNGVKVTAGNQVYEGDMVLCTVPLGVLKNGSIKFVPELPQRKLDCIKRLGFGLLNKVAMLFPYVFWSTDLDTFGHLTEDPNYRGEFFLFYSYAPVAGGALLIALVAGEAAHKFETMPPTDAVTRVLHILRGIYEPQGINVPDPLQTVCTRWGGDPFSLGSYSNVAVGASGDDYDILAESVGDGRLFFAGEATTRRYPATMHGAFVTGLREAANMAQSAKARGIRKRIDRNPSRNAHSCAILLADLFRDPDLEFGSFCIIFSRRNPDPKSPAILRVTLSEPRKRNEDPKADQHSNKILFQQLQSHFNQQQQIQVYTLLTRQQALDLREVRGGDEKRLYYLCETLGVKLVGRKGLGVGADSVIASIKAERTGRKLPSSSTSGTKSG
notes: FLD (FLOWERING LOCUS D), Arabidopsis thaliana; cDNA encoding full-length FLD in pGEX-6P-1; source: E. coli Transetta (DE3), purified (Glutathione Sepharose 4B)
For the molecule B1, the binding result in test [3], in test [4], in test [5] and in test [6] was “binds” each time.
